By UniProt entry, the sequences of proteins in these tests, tags left out. Where a name states a change or a piece, a line headed by the entry shows the natural chain unless it says otherwise.
UniProt P55210: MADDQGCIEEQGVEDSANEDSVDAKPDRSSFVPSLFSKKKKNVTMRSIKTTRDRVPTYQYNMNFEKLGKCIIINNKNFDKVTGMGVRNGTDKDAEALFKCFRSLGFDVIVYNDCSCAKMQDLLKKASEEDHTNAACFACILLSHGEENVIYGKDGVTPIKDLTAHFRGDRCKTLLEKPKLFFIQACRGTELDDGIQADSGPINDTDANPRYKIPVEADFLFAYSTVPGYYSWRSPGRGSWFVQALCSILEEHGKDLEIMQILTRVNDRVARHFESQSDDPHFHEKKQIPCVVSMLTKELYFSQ
UniProt P62877, whole entry, looked up: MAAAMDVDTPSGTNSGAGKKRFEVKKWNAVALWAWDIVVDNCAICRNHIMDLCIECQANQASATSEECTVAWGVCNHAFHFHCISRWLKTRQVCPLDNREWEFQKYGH
UniProt P62191: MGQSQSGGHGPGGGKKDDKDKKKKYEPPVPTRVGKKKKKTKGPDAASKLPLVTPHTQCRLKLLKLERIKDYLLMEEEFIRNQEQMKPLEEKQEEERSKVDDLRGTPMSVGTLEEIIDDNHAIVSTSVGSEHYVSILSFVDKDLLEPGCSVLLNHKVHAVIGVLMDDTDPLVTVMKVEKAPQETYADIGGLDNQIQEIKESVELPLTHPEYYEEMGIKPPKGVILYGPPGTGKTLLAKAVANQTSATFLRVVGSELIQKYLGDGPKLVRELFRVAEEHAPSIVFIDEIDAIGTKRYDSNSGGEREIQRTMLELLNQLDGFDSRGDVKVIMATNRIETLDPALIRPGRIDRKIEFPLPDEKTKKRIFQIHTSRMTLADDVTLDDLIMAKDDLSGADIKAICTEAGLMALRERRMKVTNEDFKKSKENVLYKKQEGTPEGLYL
UniProt P61604, whole entry: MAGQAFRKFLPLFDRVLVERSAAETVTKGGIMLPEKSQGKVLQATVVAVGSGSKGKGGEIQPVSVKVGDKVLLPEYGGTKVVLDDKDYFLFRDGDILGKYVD
UniProt P61966: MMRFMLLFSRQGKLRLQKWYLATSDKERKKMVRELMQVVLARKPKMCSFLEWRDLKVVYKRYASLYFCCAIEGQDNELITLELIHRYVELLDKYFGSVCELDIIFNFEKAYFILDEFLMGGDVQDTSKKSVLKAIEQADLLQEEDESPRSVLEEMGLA
UniProt P60891: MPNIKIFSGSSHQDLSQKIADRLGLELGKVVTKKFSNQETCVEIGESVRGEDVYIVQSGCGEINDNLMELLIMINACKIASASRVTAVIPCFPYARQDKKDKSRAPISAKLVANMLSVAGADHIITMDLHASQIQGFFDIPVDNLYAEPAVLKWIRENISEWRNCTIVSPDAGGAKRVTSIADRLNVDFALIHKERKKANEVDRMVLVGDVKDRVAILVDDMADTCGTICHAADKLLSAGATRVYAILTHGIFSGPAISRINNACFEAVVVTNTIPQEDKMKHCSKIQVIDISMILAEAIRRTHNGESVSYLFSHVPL

Some of the results follow. Most values lie at the level of the controls, where differences are scatter.
The targets below were run with CN[C@@H]1C[C@H]2O[C@@](C)([C@@H]1OC)n1c3ccccc3c3c4c(c5c6ccccc6n2c5c31)C(=O)NC4 [staurosporine] (assay: log2 fold change of tryptic peptide abundance, ligand vs vehicle (limited proteolysis) (log2 ratio); higher = more trypsin-susceptible (destabilized)). Conditions: ligand concentration: 20 uM; sample: K562 cleared lysate; digestion: 4 min, 22 C (HT-PELSA RT4min, Orbitrap Astral).
“CASP7 (peptide sequence: HFESQSDDPHFHEKK, peptide start residue: 272) (UniProt P55210)” showed a log2 fold change of 0.736.
For “UniProt P62877 (peptide sequence: QVCPLDNR, peptide start residue: 92)”, the log2 fold change was -0.0559.
Work on “UniProt P62191 (peptide sequence: YDSNSGGER, peptide start residue: 295)” yielded a log2 fold change of -0.222.
“HSPE1 (peptide sequence: GGIMLPEK, peptide start residue: 29) (UniProt P61604)” was tested, and the log2 fold change was -0.171.
In the case of “UniProt P61966 (peptide sequence: FMLLFSR, peptide start residue: 4)”, the log2 fold change was -0.146.
With “UniProt P60891 (peptide sequence: RVTSIADRLNVDFALIHK, peptide start residue: 177)” the log2 fold change was -0.235.

Reference: the supplement of paper PMC12819154, “High-throughput peptide-centric local stability assay extends protein–ligand identification to membrane proteins, tissues and bacteria” (Nature Structural & Molecular Biology, 2025)
